These results are taken from article PMC7650776.

Protein sequences, listed by entry. Tags and fused reporters are not part of them.
UniProt Q92993: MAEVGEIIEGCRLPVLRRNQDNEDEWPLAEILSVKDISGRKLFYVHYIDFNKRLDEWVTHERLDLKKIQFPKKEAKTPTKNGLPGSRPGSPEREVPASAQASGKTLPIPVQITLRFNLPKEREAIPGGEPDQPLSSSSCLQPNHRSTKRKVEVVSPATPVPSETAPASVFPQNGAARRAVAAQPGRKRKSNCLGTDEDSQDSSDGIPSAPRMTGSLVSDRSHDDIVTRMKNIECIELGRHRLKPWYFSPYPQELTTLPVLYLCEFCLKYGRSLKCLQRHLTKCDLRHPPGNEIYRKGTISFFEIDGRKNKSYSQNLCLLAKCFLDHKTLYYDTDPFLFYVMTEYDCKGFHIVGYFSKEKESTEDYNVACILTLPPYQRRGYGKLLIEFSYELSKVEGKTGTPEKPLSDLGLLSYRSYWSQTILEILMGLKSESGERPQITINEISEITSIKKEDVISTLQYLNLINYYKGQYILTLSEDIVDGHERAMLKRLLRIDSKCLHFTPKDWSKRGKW

The target in test [1] is T1, VRK1-HA (human VRK1, transfected) (human) (UniProt Q99986).
T1 sequence: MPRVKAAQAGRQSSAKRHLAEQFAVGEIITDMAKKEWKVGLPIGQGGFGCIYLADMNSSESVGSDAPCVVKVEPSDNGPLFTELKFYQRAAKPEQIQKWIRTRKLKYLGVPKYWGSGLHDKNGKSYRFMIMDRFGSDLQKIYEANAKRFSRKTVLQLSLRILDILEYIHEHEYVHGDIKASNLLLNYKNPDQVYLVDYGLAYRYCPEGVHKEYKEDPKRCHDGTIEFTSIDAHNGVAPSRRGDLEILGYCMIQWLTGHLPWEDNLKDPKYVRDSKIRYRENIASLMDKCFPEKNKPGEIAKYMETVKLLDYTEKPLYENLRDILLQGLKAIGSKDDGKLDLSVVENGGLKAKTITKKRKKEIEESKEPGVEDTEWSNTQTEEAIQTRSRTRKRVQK
The test can be described thus: co-IP; A549 cells transfected with Tip60-V5 and VRK1-HA; reciprocal immunoprecipitations from lysate (50 mM Tris-HCl pH 8.0, 1 mM EDTA, 150 mM NaCl, 1% triton X-100); immunoblot.

Test [2] deals with Tip60-V5 (human Tip60, transfected) (human) (UniProt Q92993). Described as above.
Test [3] concerns the target endogenous Tip60 (human (endogenous in A549)) (UniProt Q92993). The test can be described thus: co-IP; endogenous Tip60 immunoprecipitated with an anti-Tip60 antibody (ab137518), endogenous VRK1 detected by immunoblot; cells with or without doxorubicin.
For test [4], the target named is Tip60-V5 (human Tip60, transfected) (human) (UniProt Q92993). The test can be described thus: co-IP; A549 cells transfected with Tip60-V5, 0.5% serum for 48 h, doxorubicin time course; Tip60 immunoprecipitated, endogenous VRK1 detected by immunoblot.

No constants are given. Whether binding was seen depends on the method and setting. Binding seen in cells or lysates may run through a third protein. Some results given as binding are weak or reduced against the parent protein; the word gives no strength. For some of these results: Sequences can lack the tags named with a protein.

“Tip60-V5 (human Tip60, transfected) (from UniProt Q92993 1-513) (enzyme)”: in test [1], the binding entry is given as “binds”.

B1: VRK1-HA (human VRK1, transfected) (enzyme, UniProt Q99986 1-396)
chain: MPRVKAAQAGRQSSAKRHLAEQFAVGEIITDMAKKEWKVGLPIGQGGFGCIYLADMNSSESVGSDAPCVVKVEPSDNGPLFTELKFYQRAAKPEQIQKWIRTRKLKYLGVPKYWGSGLHDKNGKSYRFMIMDRFGSDLQKIYEANAKRFSRKTVLQLSLRILDILEYIHEHEYVHGDIKASNLLLNYKNPDQVYLVDYGLAYRYCPEGVHKEYKEDPKRCHDGTIEFTSIDAHNGVAPSRRGDLEILGYCMIQWLTGHLPWEDNLKDPKYVRDSKIRYRENIASLMDKCFPEKNKPGEIAKYMETVKLLDYTEKPLYENLRDILLQGLKAIGSKDDGKLDLSVVENGGLKAKTITKKRKKEIEESKEPGVEDTEWSNTQTEEAIQTRSRTRKRVQK
As for B1, the binding entry in test [2] was “binds”.

B2: endogenous VRK1 (enzyme, UniProt Q99986 1-396)
chain: MPRVKAAQAGRQSSAKRHLAEQFAVGEIITDMAKKEWKVGLPIGQGGFGCIYLADMNSSESVGSDAPCVVKVEPSDNGPLFTELKFYQRAAKPEQIQKWIRTRKLKYLGVPKYWGSGLHDKNGKSYRFMIMDRFGSDLQKIYEANAKRFSRKTVLQLSLRILDILEYIHEHEYVHGDIKASNLLLNYKNPDQVYLVDYGLAYRYCPEGVHKEYKEDPKRCHDGTIEFTSIDAHNGVAPSRRGDLEILGYCMIQWLTGHLPWEDNLKDPKYVRDSKIRYRENIASLMDKCFPEKNKPGEIAKYMETVKLLDYTEKPLYENLRDILLQGLKAIGSKDDGKLDLSVVENGGLKAKTITKKRKKEIEESKEPGVEDTEWSNTQTEEAIQTRSRTRKRVQK
B2: the binding result in test [3] and in test [4] was “binds” throughout.
